Results from US20120014954A1 (ABRAXIS BIOSCIENCE, published 2012).
No constants are given. Whether binding was seen depends on the method and setting. Some results given as binding are weak or reduced against the parent protein; the word gives no strength.

How the values were obtained:
[1] = biological target: T1, Secreted Protein, Acidic, Rich in Cysteines (SPARC) (UniProt P09486); assay: scFv phage display screening, ELISA
T1 sequence (looked up): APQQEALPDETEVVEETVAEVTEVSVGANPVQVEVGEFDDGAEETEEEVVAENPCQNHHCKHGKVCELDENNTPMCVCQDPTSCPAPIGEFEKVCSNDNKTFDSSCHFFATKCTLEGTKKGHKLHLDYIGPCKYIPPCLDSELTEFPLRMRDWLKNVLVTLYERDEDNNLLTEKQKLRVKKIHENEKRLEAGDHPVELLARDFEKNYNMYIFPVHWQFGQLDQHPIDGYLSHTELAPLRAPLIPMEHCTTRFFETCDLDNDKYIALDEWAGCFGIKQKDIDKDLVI

[2] = biological target: T1, Secreted Protein, Acidic, Rich in Cysteines (SPARC); assay: Biacore (SPR), SPARC immobilised, scFv as flow through
[3] = biological target: T1, Secreted Protein, Acidic, Rich in Cysteines (SPARC); assay: phage ELISA and soluble scFv ELISA with SPARC as antigen
[4] = biological target: T2, Abx SPARC (SPARC from engineered HEK293 cells produced by Abraxis) (UniProt P09486); assay: Biacore (SPR), SPARC immobilised; KD values only in FIG. 20B
T2 sequence (looked up): T1 sequence (looked up)

[5] = biological target: T3, HTI SPARC (purified platelet SPARC obtained from HTI) (UniProt P09486); assay: as above
T3 sequence (looked up): T1 sequence (looked up)

[6] = biological target: T1, Secreted Protein, Acidic, Rich in Cysteines (SPARC); assay: Biacore, SPARC immobilised on the chip, scFv in the flow; which SPARC preparation is not said
[7] = biological target: T1, Secreted Protein, Acidic, Rich in Cysteines (SPARC); assay: ELISA and IHC
[8] = biological target: T1, Secreted Protein, Acidic, Rich in Cysteines (SPARC); assay: concentration-dependent ELISA on SPARC
[9] = biological target: T1, Secreted Protein, Acidic, Rich in Cysteines (SPARC); assay: concentration-dependent binding ELISA (FIG. 9)

Measured: binding

B1: ScFv 2-1 (scFv)
scFv: EVQLLESGGGLVQPGGSLRLSCAASGFTFSSYAMSWVRQAPGKGLEWVSMITPLGSTTAYADSVKGRFTISRDNSKNTLYLQMNSLRAEDTAVYYCAKRAGVFDYWGQGTLVTVSSGGGGSGGGGSGGGGSTDIQMTQSPSSLSASVGDRVTITCRASQSISSYLNWYQQKPGKAPKLLIYRASTLQSGVPSRFSGSGSGTDFTLTISSLQPEDFATYYCQQNDSFPTTFGQGTKVEIKR
notes: It was purified from bacteria on a nickel column
binds: [1] | [2] | [3] | [4] | [5] | [6]

B2: ScFv 2-2 (scFv)
scFv: EVQLLESGGGLVQPGGSLRLSCAASGFTFSSYAMSWVRQAPGKGLEWVSHIQGQGRATYYADSVKGRFTISRDNSKNTLYLQMNSLRAEDTAVYYCAKTHGKFDYWGQGTLVTVSSGGGGSGGGGSGGGGSTDIQMTQSPSSLSASVGDRVTITCRASQSISSYLNWYQQKPGKAPKLLIYRASRLQSGVPSRFSGSGSGTDFTLTISSLQPEDFATYYCQQPSGVPTTFGQGTKVEIK
binds: [1] | [3]

B3: PD 21 (peptide)
peptide: VTPLLKFRALSS
notes: 12-mer from the Ph.D.-12 phage library; The peptide was cloned into pFUSE-hIgG1-Fc2 and expressed as the PD 21-Fc fusion; also called peptide 21; PD 21-Fc
binds: [7] | [8] | [9]

B4: PD 15 (peptide)
peptide: YTRLHHWIPPQR
notes: 12-mer from the Ph.D.-12 phage library; The peptide was cloned into pFUSE-hIgG1-Fc2 and expressed as the PD 15-Fc fusion; also called peptide 15; PD 15-Fc
binds: [7] | [8] | [9]
